According to patent publication US20040009147A1:

How the values were obtained:
Test in all cases: immunoprecipitation with anti-Flag agarose, western blot with anti-poly(His)6
[1] = molecular target: TL-3, Flag-tagged soluble protein
[2] = molecular target: TL-6, Flag-tagged soluble protein
[3] = molecular target: TL-7, Flag-tagged soluble protein

Measured: binding

B1: TR6-(His), recombinant TR6 (DcR3) with hexa-histidine at the C-terminus (receptor)
chain: VAETPTYPWRDAETGERLVCAQCPPGTFVQRPCRRDSPTTCGPCPPRHYTQFWNYLERCRYCNVLCGEREEEARACHATHNRACRCRTGFFAHAGFCLEHASCPPGAGVIAPGTPSQNTQCQPCPPGTFSASSSSSEQCQPHRNCTALGLALNVPGSSSHDTLCTSCTGFPLSTRVPGAEECERAVIDFVAFQDISIKRLQRLLQALEAPEGWGPTPRAGRAALQLKLRRRLTELLGAQDGALLVRLLQALRVARMPGLERSVRERFLPVHHHHHHH
no binding: [1] | [2] | [3]

Results are given in words; binding and its absence hold for the method and conditions named. Where a sequence is shown, tags or fusion partners need not be part of it.
